Assay results from PubChem BioAssay AID2685 (National Center for Advancing Translational Sciences (NCATS), 2010).
The other results are listed elsewhere or left out. The main result of the screen is listed elsewhere. These columns were measured beside it and carry no call. Most of these compounds were active or inconclusive in the main read-out, so they are no random draw. Words in brackets tell the shape of the fitted curve; partial curves, single points and poor fits give uncertain potencies.

Test: qHTS Assay for Lipid Storage Modulators in Drosophila S3 Cells;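 on cell number change: cells counted by Cell Tracker Red CMTPX staining in the red channel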
Details: BODIPY lipid droplet fluorescence, 18-24 h; for cell number change: measured here: cell count max response, cells fed with added oleic acid
Outline: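 Drosophila S3 cells loaded with oleic acid (400 uM, as added) and compounds at several concentrations; lipid droplets imaged by 488-nm laser-scanning cytometry, 500–530 nm intensity and object ratio to cell channel. Percent activity normalized to 20 uM Triacsin C.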

[1] = measured here: cell number channel AC50, cells fed with added oleic acid
[2] = measured here: lipid fluorescence (Fed channel) AC50, cells fed with added oleic acid

Structure (SMILES)	AC50 [1]	AC50 [2]	cell number change [%]
Nc1c(S(=O)(=O)c2cccs2)c2nc3ccccc3nc2n1CC1CCCO1 (stereo unspecified)	130 nM [rising, full curve, poor fit]	731 nM [rising, full curve]	
Cc1ccc(S(=O)(=O)c2cc(C#N)c(=O)[nH]c2N)cc1		5.17 nM [falling, full curve, poor fit]	0.287
COc1cccc(N2CCN(CC(=O)NC(=O)NCc3ccco3)CC2)c1			9.91
CC(=O)Nc1ccc(S(=O)(=O)NC2CC(=O)N(c3ccc(C)cc3)C2)cc1 (stereo unspecified)		18400 nM [rising, single point]	17.9
C/C(=N\NC(=S)Nc1ccc(C)cc1)c1cc2ccccc2o1		2060 nM [rising, partial curve]	-22.6
COc1ccc(C(=O)COC(=O)[C@H](C)Nc2ccc(C(F)(F)F)cc2[N+](=O)[O-])cc1	5.17 nM [falling, full curve, poor fit]	23100 nM [falling, partial curve]	-23.1
CCCCn1c(=O)c(CC(C)=O)nc2ccccc21		3660 nM [rising, partial curve]	5.12
O=C(NCCN1CCCCCC1)C1CCCN1S(=O)(=O)c1cccc2nsnc12 (stereo unspecified)		164 nM [rising, full curve, poor fit]	-3.6
Cc1c(CCOC(=O)c2cc([N+](=O)[O-])cc([N+](=O)[O-])c2)sc[n+]1CCCCS(=O)(=O)[O-]		32600 nM [rising, single point]	24.6
Cc1ccc(C)c(NC(=O)c2cc3c([nH]c4ccccc43)c(C)n2)c1			-16.1
O=C(NN1C(=O)c2ccccc2NC1c1ccc([N+](=O)[O-])o1)c1ccc([N+](=O)[O-])cc1 (stereo unspecified)	29100 nM [falling, single point]	2060 nM [falling, partial curve, poor fit]	-35.8
O=C(NCc1ccco1)/C(=C\c1ccccc1)NC(=O)c1ccccc1			-13.3
CCOC(=O)c1cc(CNC(=O)c2c(C)oc3c2CCCC3)c(C)o1		20600 nM [rising, single point]	-9.98
CCCC(=O)NC(=S)Nc1ccccc1C(F)(F)F	5.8 nM [falling, full curve, poor fit]	32600 nM [falling, single point]	
COc1cccc2c1nc(C)c1cc(C)oc12		651 nM [rising, full curve]	26.7
Cc1cc(C(F)(F)F)nn2cnnc12			24.9
CCCn1ncc(CN2CCC(n3nccc3NC(=O)CCc3ccccc3)CC2)c1C	10300 nM [falling, partial curve]	29100 nM [falling, single point]	-31.5
COc1ccc(-c2oc3ncnc(NCCCN4CCOCC4)c3c2-c2ccc(OC)cc2)cc1	1640 nM [rising, partial curve]		-56.1
CC(C)n1cc(/C=N/Nc2ccc(Cl)c(C(=O)O)c2)c2ccccc21	5.17 nM [rising, full curve, poor fit]		2.93
Cc1ccccc1[C@]1(C)ON(c2ccccc2C(F)(F)F)C1=O	4110 nM [falling, partial curve]	103 nM [falling, full curve, poor fit]	-89.4
COc1cccc(C2=CC(=O)C[C@H](c3ccc(F)cc3)C2)c1OC	5.8 nM [falling, full curve, poor fit]		-51.2

Structure (SMILES)	AC50 [1]	AC50 [2]	cell number change [%]
O=C(Nc1ccc2c(c1)OCO2)c1n[nH]c(=O)c2ccccc12		6510 nM [rising, single point]	2.34
Cc1ccc(C)c(/C=C(\C(=O)O)c2ccc(S(=O)(=O)N3CCCCC3)s2)c1	920 nM [rising, full curve]	731 nM [rising, partial curve, poor fit]	38.3
CC(C)N(C(=O)COC(=O)[C@H](C)NC(=O)c1ccco1)c1ccccc1		18400 nM [falling, single point]	22.3
CC1(C)CCSC(/C=C/c2ccccc2)=N1	29100 nM [falling, single point]		-30.8
COC(C[C@H](O)C[C@H](O)[C@H](C)OCc1ccccc1)OC		116 nM [rising, single point]	16.3
O=C(Nc1ccc2c(c1)OCO2)c1cc(Cl)ccn1		4.61 nM [falling, full curve, poor fit]	-11.3
CC(C)OC(=O)C(CC(=O)O)NCc1ccccc1 (stereo unspecified)			7.78
Cc1ccc(O)c(NC(=O)c2noc3c2CCCCC3)c1	8200 nM [falling, partial curve]	14600 nM [falling, partial curve]	-41.2
Cc1c(C(=O)O)cccc1-n1c(C)cc(/C=C(/C#N)C(=O)NCc2ccccc2)c1C			45.2
CCOc1ccc(-n2nnnc2-c2nc3ccccc3s2)cc1			-1.57
CCOC(=O)C1(Cc2ccccc2)CCCN(C(=O)c2cn[nH]c2)C1 (stereo unspecified)		6510 nM [rising, single point]	
CC(C)(C)NC(=O)NC(=O)CN1CCCCC1			-27
COc1cc(C(=O)NCCc2c[nH]c3ccccc23)ccc1OCc1c(C)noc1C	411 nM [rising, full curve, poor fit]		
COc1ccc2[nH]c(=O)c(CN(CCCN(C)C)C(=O)Nc3ccccc3)cc2c1			-1.05
Cc1cc(Cl)c(S(=O)(=O)N2CCN(c3ccc(F)cc3)CC2)cc1OCC(=O)NC1CCCCC1	6510 nM [rising, single point]	29100 nM [rising, single point]	
COc1ccc(NC(=O)CSc2nc(O)cc(=O)n2-c2ccc(OC)cc2)cc1			23
CCOc1ccc(NC(=O)CSc2ccc3nnc(-c4cccnc4)n3n2)cc1	820 nM [rising, partial curve]	6510 nM [rising, single point]	-1.51
COc1ccc(CCN(C(=O)c2ccc(F)cc2)C2=CC3CCC(C2)N3C)cc1OC (stereo unspecified)		731 nM [falling, full curve, poor fit]	1.9
S=C(NC1CCCCC1)NN(c1ccccc1)c1ccccc1		29100 nM [rising, single point]	18.3
COc1ccc(/C=C/C(=O)OCC(=O)Nc2ccc3[nH]c(=O)[nH]c3c2)cc1OC	146 nM [rising, full curve, poor fit]		
CS(=O)(=O)N1CCC(C(=O)N2CCC(Cc3ccccc3)CC2)CC1		2060 nM [rising, single point]	

Structure (SMILES)	AC50 [1]	AC50 [2]	cell number change [%]
COc1ccc(C(=O)N/N=C\c2coc3ccc(Cl)cc3c2=O)cc1		29100 nM [falling, single point]	
CCNCc1cc2cc(C)ccc2[nH]c1=O			17.2
Cc1cc(NCc2ccc(F)cc2)nc2cc(Cl)ccc12		326 nM [rising, partial curve, poor fit]	-26.5
CCn1c(=NC(=O)CN2C(=O)CCC2=O)sc2c(OC)ccc(OC)c21		51.7 nM [rising, full curve, poor fit]	0.866
COc1ccc2[nH]c(C)c(CCN3C(=O)C4CC=CCC4C3=O)c2c1 (stereo unspecified)			2.18
CC(C)CN(C(=O)C(C)N1C(=O)c2ccccc2C1=O)c1c(N)n(Cc2ccccc2)c(=O)[nH]c1=O (stereo unspecified)		731 nM [rising, full curve]	
COc1ccc(CN2CCN(C(=O)c3c(-c4ccccc4)noc3C)CC2)cc1F		29100 nM [falling, single point]	-9.34
O=C(c1cccs1)N(Cc1ccc(F)cc1)C1CCS(=O)(=O)C1 (stereo unspecified)	6510 nM [rising, single point]	580 nM [falling, single point]	-14.4
COC(=O)c1c(NC(=O)C2CC(=O)NN2Cc2ccccc2)sc(C)c1C (stereo unspecified)	8200 nM [falling, partial curve]	5800 nM [falling, partial curve]	-68.2
NC(=O)COC(=O)c1cc(-c2cccs2)nn1-c1ccccc1			27.8
CCOc1ccc(S(=O)(=O)NCC2(N3CCCCC3)CCCCC2)cc1			-0.5
CS(=O)(=O)N(CC(=O)N1CCCCCC1)c1cc(Cl)ccc1Cl			20.5
CCOC(=O)c1cnc2c(C)cccc2c1NCCc1ccc(OC)c(OC)c1	820 nM [rising, full curve]	731 nM [rising, full curve]	46.1
O=C(N=C1SC2CS(=O)(=O)CC2N1Cc1ccc(F)cc1)C1CC1 (stereo unspecified)		6510 nM [rising, single point]	-3.98
O=C(c1cn(Cc2ccccc2)nc1-c1cccnc1)N1CCN(Cc2c(F)cccc2Cl)CC1		29100 nM [falling, single point]	-16.7
Cc1ccc(N2CCN(CCc3nc4cc(NC(=O)c5ccco5)ccc4n3C)CC2)cc1			23.9
Cc1cc(C)nc(NC2=NC3CCCCC3N2)n1 (stereo unspecified)			1.17
O=C(Nc1cccc(S(=O)(=O)NC2=NCCC2)c1)c1ccc(OC(F)F)cc1		3260 nM [falling, single point]	-37.9
COc1ccc(CCNC(=O)CCNC(=O)c2ccccc2Cl)cc1	6510 nM [rising, partial curve, poor fit]		18.1
COc1ccc(-c2csc(NC(=O)C3CC(=O)N(Cc4ccco4)C3)n2)cc1 (stereo unspecified)	2060 nM [rising, single point]		3
